# Measurements reported in PubChem BioAssay AID1159584 (Peter MacCallum Cancer Centre, 2016)
# Assay: 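Genes whose loss is lethal only together with E-cadherin loss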 (primary screen)
# System: human MCF10A breast epithelial cells, parental and CDH1-null
# Reagents: siRNA against human genes
# Measurement: 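Cell viability by CellTiter-Glo ATP luminescence, each line scaled to the mean of mock wells across plates, then CDH1-null over parental ratio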
# Reading the numbers: CDH1-null / parental viability ratio: higher = CDH1-null cells survive relatively better than parental; CDH1-null viability vs mock: higher = more viable CDH1-null cells; parental viability vs mock: higher = more viable parental cells
# The whole screen tested about 18,000 reagents; shown is a random part of them. Reagents against one gene are numbered here. Not given: the amount of reagent, the time to read-out.
target gene,siRNA no.,CDH1-null / parental viability ratio,CDH1-null viability vs mock (fraction of mock),parental viability vs mock (fraction of mock)
BCAS2,1,1.02,0.88,0.86
MILR1,1,0.65,0.4,0.62
SLC6A20,1,1.05,0.97,0.92
ZFP36L2,1,1.2,0.54,0.45
EFNB3,1,0.82,0.55,0.67
CS,1,0.76,0.71,0.94
RBM26,1,1.15,0.75,0.65
GNG2,1,0.74,0.55,0.74
MTR,1,1.12,1.05,0.94
OR1Q1,1,0.98,0.95,0.97
CEBPE,1,1.14,0.8,0.7
AGT,1,0.96,0.98,1.02
TKFC,1,0.93,0.63,0.68
SNX4,1,0.86,0.66,0.77
OR13C4,1,0.71,0.8,1.12
IFIT5,1,0.76,0.64,0.84
ABCC8,1,1.13,0.77,0.68
TMPRSS6,1,1.06,1,0.94
ZFP82,1,1.07,0.74,0.69
NAA11,1,1.12,0.9,0.8
HEBP1,1,1.21,1.17,0.97
P2RY6,1,1.05,0.8,0.76
HECA,1,1.13,0.86,0.76
GOSR1,1,1.06,1,0.94
ITGAV,1,0.89,0.78,0.88
LTN1,1,0.93,0.97,1.04
KIFC3,1,0.71,0.6,0.84
ZC3HC1,1,1,0.84,0.84
AKAP4,1,0.91,1.13,1.24
FTL,1,1.07,0.9,0.84
GZF1,1,1.05,0.84,0.8
RBFOX3,1,0.85,0.68,0.8
RBFOX3,2,1.13,1.01,0.89
SPTBN1,1,1.03,0.69,0.67
GARIN1A,1,1.47,1,0.68
SLC18A1,1,0.84,0.76,0.9
ARSI,1,1.02,0.93,0.91
DPPA3,1,0.71,0.55,0.77
CEP76,1,1.08,1.17,1.08
ANKK1,1,0.83,0.7,0.84
ZNF583,1,2.08,1,0.48
ZHX2,1,1.15,1.05,0.91
ABRAXAS2,1,1.15,0.92,0.8
MAOB,1,0.85,0.88,1.04
ISG20,1,0.99,0.76,0.77
GPRC6A,1,1.47,0.88,0.6
BMP2,1,1.13,0.86,0.76
GTF3C2,1,1.09,1.13,1.04
PRM1,1,0.96,0.65,0.68
BIRC8,1,0.91,0.84,0.92
SYT1,1,0.79,0.46,0.58
DNAAF1,1,1.04,0.85,0.82
MRPL20,1,0.83,0.7,0.84
GPR50,1,1.13,0.88,0.78
CEACAM3,1,1.48,0.65,0.44
DMRTC2,1,0.8,0.56,0.7
DUSP4,1,1.34,0.91,0.68
OTUB1,1,1.03,0.7,0.68
TUBGCP3,1,0.94,0.45,0.48
COL4A4,1,1.01,0.86,0.85
OR9G1,1,0.93,0.91,0.98
PRL,1,1.04,1.08,1.04
SPMIP8,1,1.13,0.88,0.78
BBS1,1,1.17,1.1,0.94
FAM131C,1,1.25,0.6,0.48
ATP10A,1,0.98,0.84,0.86
SHPK,1,0.97,0.66,0.68
OTULIN,1,1.01,0.68,0.67
GAPDHS,1,1.16,1.16,1
SHBG,1,0.99,0.73,0.74
SLC22A23,1,1.12,1.17,1.04
CCNF,1,0.97,0.96,0.99
ADAMTS1,1,1.24,0.52,0.42
SLC38A1,1,0.55,0.53,0.96
RGPD5,1,1.02,0.54,0.53
GPHRB,1,1.02,0.88,0.86
OTUD4,1,1.05,0.96,0.91
GLRA2,1,1.05,0.86,0.82
MLXIPL,1,0.91,0.78,0.86
GSTA3,1,1.01,0.79,0.78
TRAM2,1,0.83,0.5,0.6
AGAP4,1,0.94,0.97,1.03
AGAP4,2,1.07,1.08,1.01
IFNK,1,1.26,0.44,0.35
PFDN2,1,0.94,0.62,0.66
HEYL,1,1.29,1.08,0.84
ATP9B,1,1.07,1.07,1

An excerpt from above, showing only “CDH1-null / parental viability ratio”.
ZFP36L2	1.2
EFNB3	0.82
CS	0.76
RBM26	1.15
GNG2	0.74
MTR	1.12
OR1Q1	0.98
CEBPE	1.14
AGT	0.96
TKFC	0.93
SNX4	0.86
OR13C4	0.71
